The record followed here is article PMC9939006.

No constants are given. Whether binding was seen depends on the method and setting. In cells and extracts the contact can be indirect. Some binding calls cover weakened binding; strength is not graded here.

In this experiment the target is B-cell CLL/lymphoma 7 protein family member C (BCL7C) (human (endogenous in SW-13)) (UniProt Q8WUZ0). In words: co-IP; immunoprecipitation (anti-V5, BCL7B, BCL7C, BAF53a, BAF155, GLTSCR1L, BAF45b or IgG) from iBRG1 or i∆HSA cells after 24 h doxycycline; cells crosslinked with 1% formaldehyde, high-salt extraction (420 mM NaCl), nuclease, diluted 1:5 in IP buffer (100 mM NaCl, 0.1% NP-40), Protein G Dynabeads, Western blot.

Take “iBRG1 (inducible WT BRG1, Brahma-related gene 1, with C-terminal V5 tag) (from UniProt P51532 1-1647) (enzyme)”: the binding entry is “binds”.
